Measured values taken from PubChem BioAssay AID901 (National Center for Advancing Translational Sciences (NCATS), 2007).
The other results are listed elsewhere or left out. Shown are side measurements of this screen, not its main read-out; they come without a call. The list favours compounds with an active or inconclusive main result. Potencies come from curve fits of mixed quality, noted in brackets.

test: qHTS Assay for Identifying the Cell-Membrane Permeable IMPase Inhibitors; conditions: CHO-M1 cells, IP1 accumulation, HTRF TR-FRET ratio; measured here: donor channel 620 nm AC50
From the text: NCGC IMPase Assay Overview
Lithium has been widely used for the treatment of bipolar disorder. But lithium has a narrow therapeutic index and it can cause side effects such as thirst, weight gain, tremor, polyuria and memory problems. Although the mechanism for lithium action in treatment of bipolar disorder is still not fully understood, inhibition of inositol monophosphatase (IMPase) and the subsequent depletion of the inositol pool in living cells have been implicated as the primary therapeutic benefit of lithium therapy. Therefore, a selective IMPase inhibitor with reduced side effects might be a good drug candidate to replace lithium for the treatment of bipolar disorder. Several IMPase inhibitors have been discovered previously. However, they are not suitable for therapeutic use because of their poor cell membrane penetrability or oral bioavailability; the development of new cell-permeable IMPase inhibitors is needed.
IMPase catalyzes the hydrolysis of inositol-1-phosphate (IP1) to release free inositol. Binding of an agonist to a Gq coupled GPCR results in the activation of PLC, which hydrolyzes the PIP2 to form inositol-1,4,5-trisphosphate (IP3) and diacyl glycerol (DAG). While DAG activates protein kinase C (PKC), IP3 triggers the elevation of intracellular free Ca2+. The IP3 is very rapidly inactivated by hydrolysis to IP2, IP1 and then inositol by a series of enzymes including IMPase. Free inositols are used for synthesis of PI and thus start another inositol cycle.
To identify new cell-permeable IMPase inhibitors, we developed a cell-based IMPase assay in which the cytosolic IP1 is measured by a time-resolved fluorescence resonance energy transfer (TR-FRET) assay. In this assay, an IP1 specific antibody is used to detect the labeled IP1 tracer. When the cell lysate contains the elevated IP1 due to the inhibition of IMPase, the TR-FRET between the labeled antibody and IP1 tracer is disrupted resulting in a reduction in the total signal. Since the TR-FRET is used, this cell-based assay is a homogenous assay without cell wash and medium change that is suitable for assay miniaturization and HTS.
NCGC IMPase Assay Protocol Summary
A Chinese hamster ovary (CHO) cell line stably expressing the M1 receptor (CHO-M1) was obtained from ATCC and maintained in F-12 Kaighn's media (Invitrogen, Carlsbad, CA, 21127) supplemented with 10 % FBS, 100 units/ml penicillin, 100 ug/ml streptomycin and 250 ug/ml geneticin at 37C, 5% CO2 in a humidified atmosphere. Before the assay, aliquots of cells were frozen and stored at -135C. The assay was performed in 1536-well format. Data are reported for both the ratio of the two emission wavelengths, and also for the component 'donor' channel, Em2=620. […] AC50 values were determined from concentration-response data modeled with the standard Hill equation.
IMPase 1536-well assay protocol:
(1) Plate 4 ul/well (2000 cells) of cell suspension from frozen CHO-M1 Cells in white, tissue culture treated 1536-well plates that are cultured at 37C, 5 % CO2 for 16 to 30 hours.
(2) Add 23 nl/well of compound in DMSO solution. The final titration for each compound was between 0.6 nM and 46 uM.
(3) Add 1 ul of carbachol (50 uM in stimulation buffer containing10mM HEPES, 1mM CaCl2, 0.5 mM MgCl2, 4.2 mM KCl, 146 mM NaCl, 5.5 mM glucose, 50mM LiCl, pH 7.4.
(4) Incubation at 37C, 5 % CO2 for 30 min.
(5) Add 1 ul/well of d2-conjugated IP1 (d2-IP1) and 1 ul/well of Eu+ cryptate conjugated anti-IP1 antibody (Eu+-Ab) prepared in the cell lysis buffer, both from the IP-One kit (Cisbio, MA).
(6) Incubate at room temperature for 10 minutes.
(7) Detect the assay plate (Ex = 320, Em1 =665 and Em2 620) in a ViewLux plate reader.
inositol monophosphatase, IMPase, IMPase inhibitor, lithium, bipolar disorder, IP-One, HTRF, qHTS, NIH roadmap, NCGC
Note: In the gene ID and protein GI references for this assay, rat IMPase is referenced instead of hampster as hamster accession numbers were not available.

| SMILES | AC50 |
| --- | --- |
| CC1=C(C#N)C(NC(=O)c2ccco2)(C(F)(F)F)C(=O)N1 (stereo not drawn) | 1.58 µM [falling, partial curve, poor fit] |
| Cc1cc(C)nc(NS(=O)(=O)c2ccc(N/C=C3\CCCC3=O)cc2)n1 | 0.0251 µM [falling, full curve, poor fit] |
| CCOC1(OCC)N=C(N)C2(C#N)C(c3ccc(NC(C)=O)cc3)C12C#N (stereo not drawn) | 0.794 µM [rising, single point] |
| C=CCNC(=O)/C(C#N)=C/c1cn(-c2ccccc2)nc1-c1ccc(OC)c([N+](=O)[O-])c1 | 3.98 µM [rising, partial curve] |
| Cc1cc(C)n(CCc2nc(-c3cccs3)cs2)n1 | 5.01 µM [falling, partial curve] |
| COc1cc(C2=NOC(C(=O)Nc3ccc(C)cc3)C2)cc(OC)c1OC (stereo not drawn) | 3.16 µM [rising, full curve] |
| CCOC(=O)C1CCCN(C(=O)CCNS(=O)(=O)c2ccc3c(c2)CCC(=O)N3)C1 (stereo not drawn) | 3.98 µM [rising, full curve, poor fit] |
| COc1ccc(-n2c(SCC(=O)NCCC(C)C)nc3ccsc3c2=O)cc1 | 0.0316 µM [rising, partial curve, poor fit] |
| Cc1ccc(-c2c3c(=O)n(C)c(=O)n(C)c3c3cnc4ccccc4n23)cc1 | 12.6 µM [falling, partial curve] |
| Clc1ccc(Cn2cccc2C2=NCCO2)cc1 | 31.6 µM [falling, single point] |
| Cc1ccc(-c2nnc(SCC(=O)NCc3ccccc3)o2)cc1 | 35.5 µM [rising, single point] |
| CCOC(=O)C1C2C=CC3(CN(Cc4cccs4)C(=O)C13)O2 (stereo not drawn) | 7.94 µM [falling, partial curve, poor fit] |
| O=C(COc1ccccc1)c1cn(CC(=O)N2CCOCC2)c2ccccc12 | 6.31 µM [rising, single point] |
| COc1ccc(-c2nc3c(=O)n(C)c(=O)[nH]c3n2CCc2ccccc2)cc1 | 0.0126 µM [falling, full curve, poor fit] |
| CNC(=O)CSc1nnc(-c2ccco2)n1-c1ccccc1OC | 0.00398 µM [falling, full curve, poor fit] |
| O=C(Nc1ccc(CCC(=O)N2CCCC2)cc1)c1ncn[nH]1 | 0.158 µM [rising, full curve, poor fit] |
| CC1=C(C#N)C(NC(=O)c2ccccc2)(C(F)(F)F)C(=O)N1 (stereo not drawn) | 0.282 µM [falling, full curve, poor fit] |
| NS(=O)(=O)c1ccc(N2N=C(c3ccc(Br)cc3)CC2c2ccc(F)cc2)cc1 (stereo not drawn) | 11.2 µM [rising, single point] |

A draw from above in order of count of non-hydrogen atoms, low to high.

| SMILES | AC50 |
| --- | --- |
| CC1=C(C#N)C(NC(=O)c2ccco2)(C(F)(F)F)C(=O)N1 (stereo not drawn) | 1.58 µM [falling, partial curve, poor fit] |
| Cc1ccc(-c2nnc(SCC(=O)NCc3ccccc3)o2)cc1 | 35.5 µM [rising, single point] |
| CCOC(=O)C1CCCN(C(=O)CCNS(=O)(=O)c2ccc3c(c2)CCC(=O)N3)C1 (stereo not drawn) | 3.98 µM [rising, full curve, poor fit] |
